This note sets out measurements from publication doi:10.1101/152850 (bioRxiv, 2017).

Results are given in words; binding and its absence hold for the method and conditions named.

In assay [1] the target is human IFIT5 (human) (UniProt Q13325). The assay is described as follows: SEC. For orientation: In gel filtration, larger molecules generally elute earlier.
The target in assay [2] is human IFIT1 L457E (human) (UniProt P09914). The assay is described as follows: SEC.
Assay [3] deals with human IFIT1 L457A/L464A (IFIT1^DM-A) (human) (UniProt P09914). Briefly: SEC.
In assay [4] the target is human IFIT1 L464E (human) (UniProt P09914). The assay is described as follows: SEC.
Assay [5] deals with human IFIT1 L457E/L464E (IFIT1^DM-E) (human) (UniProt P09914). The assay is described as follows: SEC-MALS.
The target is the same in assay [6]. Briefly: AUC.
For assay [7] the target is unchanged. Briefly: SEC.
Assay [8] deals with human IFIT1 Y460E (human) (UniProt P09914). The assay is described as follows: SEC.

B1: human IFIT5 (protein, UniProt Q13325 1-482)
chain: MSEIRKDTLKAILLELECHFTWNLLKEDIDLFEVEDTIGQQLEFLTTKSRLALYNLLAYVKHLKGQNKDALECLEQAEEIIQQEHSDKEEVRSLVTWGNYAWVYYHMDQLEEAQKYTGKIGNVCKKLSSPSNYKLECPETDCEKGWALLKFGGKYYQKAKAAFEKALEVEPDNPEFNIGYAITVYRLDDSDREGSVKSFSLGPLRKAVTLNPDNSYIKVFLALKLQDVHAEAEGEKYIEEILDQISSQPYVLRYAAKFYRRKNSWNKALELLKKALEVTPTSSFLHHQMGLCYRAQMIQIKKATHNRPKGKDKLKVDELISSAIFHFKAAMERDSMFAFAYTDLANMYAEGGQYSNAEDIFRKALRLENITDDHKHQIHYHYGRFQEFHRKSENTAIHHYLEALKVKDRSPLRTKLTSALKKLSTKRLCHNALDVQSLSALGFVYKLEGEKRQAAEYYEKAQKIDPENAEFLTALCELRLSI
On to B1, for which, in assay [1], the binding entry is “no binding (tested: 2 mg/ml)”.

B2: human IFIT1 L457E (protein, UniProt P09914 1-478)
chain: MSTNGDDHQVKDSLEQLRCHFTWELSIDDDEMPDLENRVLDQIEFLDTKYSVGIHNLLAYVKHLKGQNEEALKSLKEAENLMQEEHDNQANVRSLVTWGNFAWMYYHMGRLAEAQTYLDKVENICKKLSNPFRYRMECPEIDCEEGWALLKCGGKNYERAKACFEKVLEVDPENPESSAGYAISAYRLDGFKLATKNHKPFSLLPLRQAVRLNPDNGYIKVLLALKLQDEGQEAEGEKYIEEALANMSSQTYVFRYAAKFYRRKGSVDKALELLKKALQETPTSVLLHHQIGLCYKAQMIQIKEATKGQPRGQNREKLDKMIRSAIFHFESAVEKKPTFEVAHLDLARMYIEAGNHRKAEENFQKLLCMKPVVEETMQDIHFHYGRFQEFQKKSDVNAIIHYLKAIKIEQASLTRDKSINSLKKLVLRKLRRKALDLESLSLLGFVYKLEGNMNEAEEYYERALRLAADFENSVRQGP
For B2, in assay [2], the binding result is reported as “no binding (tested: 2 mg/ml (~ 36 μM))”.

B3: human IFIT1 L457A/L464A (IFIT1^DM-A) (protein, UniProt P09914 1-478)
chain: MSTNGDDHQVKDSLEQLRCHFTWELSIDDDEMPDLENRVLDQIEFLDTKYSVGIHNLLAYVKHLKGQNEEALKSLKEAENLMQEEHDNQANVRSLVTWGNFAWMYYHMGRLAEAQTYLDKVENICKKLSNPFRYRMECPEIDCEEGWALLKCGGKNYERAKACFEKVLEVDPENPESSAGYAISAYRLDGFKLATKNHKPFSLLPLRQAVRLNPDNGYIKVLLALKLQDEGQEAEGEKYIEEALANMSSQTYVFRYAAKFYRRKGSVDKALELLKKALQETPTSVLLHHQIGLCYKAQMIQIKEATKGQPRGQNREKLDKMIRSAIFHFESAVEKKPTFEVAHLDLARMYIEAGNHRKAEENFQKLLCMKPVVEETMQDIHFHYGRFQEFQKKSDVNAIIHYLKAIKIEQASLTRDKSINSLKKLVLRKLRRKALDLESLSLLGFVYKLEGNMNEAAEYYERAARLAADFENSVRQGP
For B3, the binding result in assay [3] is “no binding (tested: 2 mg/ml (~ 36 μM))”.

B4: human IFIT1 L464E (protein, UniProt P09914 1-478)
chain: MSTNGDDHQVKDSLEQLRCHFTWELSIDDDEMPDLENRVLDQIEFLDTKYSVGIHNLLAYVKHLKGQNEEALKSLKEAENLMQEEHDNQANVRSLVTWGNFAWMYYHMGRLAEAQTYLDKVENICKKLSNPFRYRMECPEIDCEEGWALLKCGGKNYERAKACFEKVLEVDPENPESSAGYAISAYRLDGFKLATKNHKPFSLLPLRQAVRLNPDNGYIKVLLALKLQDEGQEAEGEKYIEEALANMSSQTYVFRYAAKFYRRKGSVDKALELLKKALQETPTSVLLHHQIGLCYKAQMIQIKEATKGQPRGQNREKLDKMIRSAIFHFESAVEKKPTFEVAHLDLARMYIEAGNHRKAEENFQKLLCMKPVVEETMQDIHFHYGRFQEFQKKSDVNAIIHYLKAIKIEQASLTRDKSINSLKKLVLRKLRRKALDLESLSLLGFVYKLEGNMNEALEYYERAERLAADFENSVRQGP
On to B4, for which the binding entry in assay [4] was “no binding (tested: 2 mg/ml (~ 36 μM))”.

B5: human IFIT1 L457E/L464E (IFIT1^DM-E) (protein, UniProt P09914 1-478)
chain: MSTNGDDHQVKDSLEQLRCHFTWELSIDDDEMPDLENRVLDQIEFLDTKYSVGIHNLLAYVKHLKGQNEEALKSLKEAENLMQEEHDNQANVRSLVTWGNFAWMYYHMGRLAEAQTYLDKVENICKKLSNPFRYRMECPEIDCEEGWALLKCGGKNYERAKACFEKVLEVDPENPESSAGYAISAYRLDGFKLATKNHKPFSLLPLRQAVRLNPDNGYIKVLLALKLQDEGQEAEGEKYIEEALANMSSQTYVFRYAAKFYRRKGSVDKALELLKKALQETPTSVLLHHQIGLCYKAQMIQIKEATKGQPRGQNREKLDKMIRSAIFHFESAVEKKPTFEVAHLDLARMYIEAGNHRKAEENFQKLLCMKPVVEETMQDIHFHYGRFQEFQKKSDVNAIIHYLKAIKIEQASLTRDKSINSLKKLVLRKLRRKALDLESLSLLGFVYKLEGNMNEAEEYYERAERLAADFENSVRQGP
In the case of B5, the binding result in assay [5] was “no binding (tested: 12 mg/ml)”; in assay [6], “no binding (tested: 18.0 μM)”; in assay [7], “no binding (tested: 2 mg/ml (~ 36 μM))”.

B6: human IFIT1 Y460E (protein, UniProt P09914 1-478)
chain: MSTNGDDHQVKDSLEQLRCHFTWELSIDDDEMPDLENRVLDQIEFLDTKYSVGIHNLLAYVKHLKGQNEEALKSLKEAENLMQEEHDNQANVRSLVTWGNFAWMYYHMGRLAEAQTYLDKVENICKKLSNPFRYRMECPEIDCEEGWALLKCGGKNYERAKACFEKVLEVDPENPESSAGYAISAYRLDGFKLATKNHKPFSLLPLRQAVRLNPDNGYIKVLLALKLQDEGQEAEGEKYIEEALANMSSQTYVFRYAAKFYRRKGSVDKALELLKKALQETPTSVLLHHQIGLCYKAQMIQIKEATKGQPRGQNREKLDKMIRSAIFHFESAVEKKPTFEVAHLDLARMYIEAGNHRKAEENFQKLLCMKPVVEETMQDIHFHYGRFQEFQKKSDVNAIIHYLKAIKIEQASLTRDKSINSLKKLVLRKLRRKALDLESLSLLGFVYKLEGNMNEALEYEERALRLAADFENSVRQGP
Turning to B6, the binding entry in assay [8] is “no binding (tested: 2 mg/ml (~ 36 μM))”.
